Experimental data reported in PMC7677509.

The chains behind the UniProt entries cited, without tags or fusion partners. Residues count along the entry.
UniProt P17936, residues 28-291: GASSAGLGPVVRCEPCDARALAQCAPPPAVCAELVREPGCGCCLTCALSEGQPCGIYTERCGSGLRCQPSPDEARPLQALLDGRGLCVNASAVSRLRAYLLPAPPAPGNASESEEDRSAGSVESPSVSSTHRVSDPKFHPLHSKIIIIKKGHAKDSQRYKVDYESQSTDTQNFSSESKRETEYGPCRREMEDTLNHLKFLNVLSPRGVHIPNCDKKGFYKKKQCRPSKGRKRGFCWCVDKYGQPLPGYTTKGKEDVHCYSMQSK

Biological target: T1, FLAG-tagged cyclin G2 (UniProt Q16589)
T1 sequence: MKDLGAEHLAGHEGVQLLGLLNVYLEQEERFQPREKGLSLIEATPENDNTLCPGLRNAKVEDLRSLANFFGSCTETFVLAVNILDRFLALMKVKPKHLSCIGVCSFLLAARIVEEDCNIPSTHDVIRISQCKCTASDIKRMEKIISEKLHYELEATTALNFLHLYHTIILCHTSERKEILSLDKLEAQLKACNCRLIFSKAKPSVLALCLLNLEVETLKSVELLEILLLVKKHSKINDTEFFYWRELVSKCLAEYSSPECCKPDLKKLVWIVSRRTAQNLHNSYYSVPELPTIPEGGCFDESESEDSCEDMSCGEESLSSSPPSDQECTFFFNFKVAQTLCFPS
Experiment: affinity purification with mass spectrometry; cells expressing FLAG or FLAG-tagged cyclin G2 lysed in RIPA buffer; anti-FLAG affinity gel; washed in PBS; gel bands stained with Coomassie, digested, mass spectrometry

binding: binds
Substance: insulin-like growth factor binding protein 3 (from UniProt P17936 28-291)

Results are given in words; binding and its absence hold for the method and conditions named. In cells and extracts the contact can be indirect. These calls come from enrichment with a bait or labelling near it, and not all partners need be listed. Tags and fused reporters may be left off the sequences shown.
